At least one structure is not confirmed: it was looked up by name or label, or the drawing left a doubt.
Test system: Influenza virus A/PR/8/34 (H1N1)
Assay: Cytopathic effect (CPE) assay of two-drug combinations in MDCK cells, MacSynergy II analysis
Assay type: cell-based

For `O=C1c2c(O)c(=O)ccn2N([C@@H]2c3ccccc3SCc3c2ccc(F)c3F)[C@@H]2COCCN12` [Baloxavir, baloxavir], the Combination effect was “Strong synergism” and the “Synergistic effect in influenza antiviral CPE assays” value was “strong synergistic effect”.

From patent US12233066B2, “Combinations of inhibitors of influenza virus replication” (COCRYSTAL PHARMA, INC., priority 2018, dated 2025)
